± gives the standard deviation of the averaged measurements. Values are relative to the signal before dosing, not to a vehicle control; the signal also falls without drug.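 Fibroblast labels denote human fibroblasts, mainly primary ones from uterus (C12385, HUF), lung (H6013), bone (Hs27A), adrenal (HADF) and skin (WS1), plus mammary HMF and breast cancer-associated Hs343T. Cancer cells are basal-like or mesenchymal-like triple-negative breast cancer lines. A hit is a response shift exceeding 3x replicate standard deviation. The tissue of the other fibroblasts is not given here.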
Test system: BT20
Test: relative JC-1 red fluorescence (viability) vs pre-drug, coculture with fibroblast (fraction); higher = more viable cancer cells
Method: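 JC-1 labelled TNBC cells cocultured 1:1 (1,500 cells each) with CellTrace Violet stained primary or stromal fibroblasts in 384-well plates in FluoroBrite medium, treated with one of 42 anticancer drugs at 0.1, 1, 10 or 100 uM. JC-1 red fluorescence (mitochondrial integrity in cancer cells only) was read by plate reader every 8 h for 72 h. Values are normalised to each well's pre-drug value. The stock of one drug was tenfold lower, so its dose labels may be too high.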

O=C(O)C(=O)O.[NH-][C@@H]1CCCC[C@H]1[NH-].[Pt+2] [Oxaliplatin]
relative JC-1 red fluorescence
Settings	8 h	16 h	24 h	32 h	40 h	48 h	56 h	64 h	72 h
10 µM, coculture fibroblast: C12385	0.8852 ± 0.0058	0.8307 ± 0.0071	0.787 ± 0.023	0.73 ± 0.032	0.685 ± 0.062	0.657 ± 0.065	0.636 ± 0.071	0.617 ± 0.072	0.596 ± 0.072
10 µM, coculture fibroblast: H6013	0.9397 ± 0.005	0.8797 ± 0.0024	0.846 ± 0.023	0.813 ± 0.032	0.778 ± 0.047	0.762 ± 0.066	0.765 ± 0.073	0.745 ± 0.078	0.731 ± 0.077
10 µM, coculture fibroblast: H6019	0.876 ± 0.022	0.823 ± 0.036	0.822 ± 0.035	0.785 ± 0.031	0.753 ± 0.034	0.751 ± 0.041	0.739 ± 0.044	0.728 ± 0.05	0.721 ± 0.058
10 µM, coculture fibroblast: H6076	0.959 ± 0.053	0.871 ± 0.018	0.7997 ± 0.0037	0.776 ± 0.014	0.763 ± 0.024	0.745 ± 0.022	0.755 ± 0.036	0.75 ± 0.049	0.731 ± 0.056
10 µM, coculture fibroblast: H6231	0.879 ± 0.15	0.909 ± 0.04	0.823 ± 0.019	0.751 ± 0.027	0.708 ± 0.025	0.67 ± 0.015	0.628 ± 0.0067	0.5908 ± 0.0046	0.5711 ± 0.0025
10 µM, coculture fibroblast: HADF	0.9853 ± 0.0018	0.843 ± 0.089	0.799 ± 0.021	0.854 ± 0.086	0.788 ± 0.039	0.735 ± 0.029	0.772 ± 0.12	0.682 ± 0.016	0.67 ± 0.054
10 µM, coculture fibroblast: HCFa	0.925 ± 0.044	0.86 ± 0.07	0.816 ± 0.1	0.804 ± 0.064	0.795 ± 0.05	0.775 ± 0.042	0.746 ± 0.063	0.733 ± 0.063	0.707 ± 0.079
10 µM, coculture fibroblast: HCPF	0.85 ± 0.017	0.936 ± 0.015	0.857 ± 0.027	0.807 ± 0.018	0.767 ± 0.024	0.716 ± 0.025	0.673 ± 0.03	0.65 ± 0.021	0.617 ± 0.028
10 µM, coculture fibroblast: HHSteC	0.906 ± 0.019	0.8305 ± 0.00084	0.77 ± 0.013	0.688 ± 0.032	0.648 ± 0.018	0.6112 ± 0.0051	0.5884 ± 0.0013	0.5564 ± 0.0022	0.537 ± 0.0074
10 µM, coculture fibroblast: HMF	0.7942 ± 0.0074	0.9127 ± 0.0033	0.81 ± 0.023	0.753 ± 0.025	0.708 ± 0.028	0.672 ± 0.02	0.638 ± 0.017	0.61 ± 0.014	0.5788 ± 0.0052
10 µM, coculture fibroblast: HPFa	0.9415 ± 0.0034	0.856 ± 0.014	0.8528 ± 0.0034	0.775 ± 0.01	0.752 ± 0.015	0.709 ± 0.0079	0.701 ± 0.02	0.678 ± 0.02	0.645 ± 0.044
10 µM, coculture fibroblast: HUF	0.883 ± 0.014	0.816 ± 0.015	0.791 ± 0.025	0.718 ± 0.038	0.674 ± 0.029	0.641 ± 0.026	0.619 ± 0.029	0.601 ± 0.03	0.585 ± 0.029
10 µM, coculture fibroblast: Hs5	0.758 ± 0.06	0.924 ± 0.028	0.864 ± 0.04	0.816 ± 0.045	0.774 ± 0.047	0.749 ± 0.038	0.728 ± 0.039	0.703 ± 0.036	0.681 ± 0.04
10 µM, coculture fibroblast: Hs27A	0.854 ± 0.014	0.888 ± 0.13	0.91 ± 0.064	0.906 ± 0.1	0.867 ± 0.1	0.845 ± 0.1	0.837 ± 0.11	0.809 ± 0.12	0.767 ± 0.11
10 µM, coculture fibroblast: Hs343T	0.832 ± 0.081	0.9143 ± 0.0087	0.7874 ± 0.0036	0.719 ± 0.011	0.657 ± 0.024	0.613 ± 0.019	0.562 ± 0.026	0.539 ± 0.027	0.5 ± 0.017
10 µM, coculture fibroblast: WS1	0.8587 ± 0.0077	0.784 ± 0.011	0.7192 ± 0.0015	0.652 ± 0.0069	0.592 ± 0.011	0.561 ± 0.012	0.531 ± 0.011	0.507 ± 0.014	0.493 ± 0.017
100 µM, coculture fibroblast: C12385	0.927 ± 0.015	0.871 ± 0.05	0.823 ± 0.05	0.781 ± 0.081	0.734 ± 0.089	0.7 ± 0.098	0.658 ± 0.085	0.628 ± 0.058	0.61 ± 0.049
100 µM, coculture fibroblast: H6013	0.947 ± 0.02	0.947 ± 0.053	0.862 ± 0.016	0.904 ± 0.1	0.862 ± 0.14	0.845 ± 0.16	0.854 ± 0.2	0.838 ± 0.22	0.825 ± 0.23
100 µM, coculture fibroblast: H6019	0.8698 ± 0.0085	0.8006 ± 0.0055	0.761 ± 0.012	0.67 ± 0.023	0.604 ± 0.025	0.562 ± 0.023	0.523 ± 0.035	0.492 ± 0.041	0.471 ± 0.041
100 µM, coculture fibroblast: H6076	0.8958 ± 0.0011	0.929 ± 0.014	0.802 ± 0.019	0.752 ± 0.029	0.692 ± 0.041	0.643 ± 0.037	0.6 ± 0.03	0.58 ± 0.034	0.551 ± 0.023
100 µM, coculture fibroblast: H6231	0.753 ± 0.061	0.9745 ± 0.0092	0.826 ± 0.037	0.756 ± 0.04	0.723 ± 0.024	0.671 ± 0.019	0.644 ± 0.017	0.619 ± 0.01	0.5905 ± 0.0035
100 µM, coculture fibroblast: HADF	0.927 ± 0.1	0.907 ± 0.036	0.823 ± 0.036	0.793 ± 0.041	0.742 ± 0.036	0.687 ± 0.039	0.664 ± 0.058	0.653 ± 0.055	0.629 ± 0.058
100 µM, coculture fibroblast: HCFa	0.934 ± 0.025	0.8835 ± 0.0012	0.855 ± 0.011	0.785 ± 0.043	0.737 ± 0.059	0.69 ± 0.068	0.67 ± 0.084	0.646 ± 0.093	0.608 ± 0.077
100 µM, coculture fibroblast: HCPF	0.87 ± 0.024	0.912 ± 0.018	0.838 ± 0.021	0.7749 ± 0.0036	0.72 ± 0.012	0.668 ± 0.017	0.629 ± 0.018	0.614 ± 0.024	0.576 ± 0.023
100 µM, coculture fibroblast: HHSteC	0.9341 ± 0.0083	0.912 ± 0.088	0.906 ± 0.13	0.834 ± 0.14	0.783 ± 0.18	0.758 ± 0.2	0.742 ± 0.21	0.719 ± 0.21	0.699 ± 0.21
100 µM, coculture fibroblast: HMF	0.842 ± 0.096	0.9084 ± 0.0075	0.7936 ± 0.0044	0.735 ± 0.015	0.667 ± 0.017	0.595 ± 0.008	0.5403 ± 0.0036	0.508 ± 0.0059	0.471 ± 0.018
100 µM, coculture fibroblast: HPFa	0.958 ± 0.021	0.884 ± 0.021	0.877 ± 0.006	0.7928 ± 0.0011	0.751 ± 0.0078	0.703 ± 0.011	0.688 ± 0.033	0.664 ± 0.045	0.635 ± 0.049
100 µM, coculture fibroblast: HUF	0.952 ± 0.059	0.886 ± 0.07	0.886 ± 0.077	0.807 ± 0.093	0.75 ± 0.1	0.705 ± 0.085	0.69 ± 0.09	0.674 ± 0.087	0.665 ± 0.086
100 µM, coculture fibroblast: Hs5	0.912 ± 0.0098	0.911 ± 0.0098	0.8286 ± 0.0044	0.7641 ± 0.0053	0.7174 ± 0.0035	0.676 ± 0.0094	0.6576 ± 0.0012	0.6296 ± 0.0015	0.6149 ± 0.0055
100 µM, coculture fibroblast: Hs27A	0.786 ± 0.02	0.844 ± 0.079	0.9375 ± 0.0033	0.932 ± 0.012	0.9002 ± 0.0047	0.883 ± 0.023	0.903 ± 0.011	0.899 ± 0.015	0.865 ± 0.014
100 µM, coculture fibroblast: Hs343T	0.963 ± 0.023	0.887 ± 0.0011	0.8074 ± 0.0017	0.751 ± 0.011	0.702 ± 0.014	0.646 ± 0.0068	0.598 ± 0.009	0.585 ± 0.0064	0.561 ± 0.0067
100 µM, coculture fibroblast: WS1	0.8844 ± 0.0049	0.787 ± 0.028	0.7715 ± 0.005	0.7099 ± 0.0029	0.656 ± 0.0082	0.6202 ± 0.0033	0.593 ± 0.0021	0.559 ± 0.011	0.553 ± 0.015

Reference: the supplement of paper PMC6078165
